Where two headings read alike, the source gives them in different places.

The subject of one data set is HCC-1954 cells. Put plainly: Cytotoxicity (cell viability, CellTiter-Glo, 6 d).
The test system of a further data set is NCI-N87 cells. Put plainly: Cytotoxicity (cell viability, CellTiter-Glo, 6 d). It counts as cell-based. Particulars: Homo sapiens, NCI-N87, read-out: cellular cytotoxicity, potency. How it is done:
Compounds were added using Tecan D300e liquid. […] Synergy scores were calculated using LOEWE synergy model.

As for `C[C@@H]1COCCN1c1cc(-c2ccnn2C)c2ccnc(-c3ccn[nH]3)c2n1` [ATRi 1], the IC50 in the data set on HCC-1954 cells (read-out: Cytotoxicity IC50, ATRi alone, HCC-1954, mean ± SD) came out at 400 ± 200 nM.
As to `C[C@@H]1COCCN1c1cc(-c2ccnn2C)c2ccnc(-c3ccn[nH]3)c2n1` [BAY1895344], the IC50 in the data set with NCI-N87 cells turned out to be 300 ± 300 nM; in the data set with HCC-1954 cells (Homo sapiens, HCC1954, read-out: Cytotoxicity IC50) it was 50 ± 20 nM.

The record behind these values is patent US12616750B2, “Combination therapy utilizing DNA alkylating agents and ATR inhibitors” (Merck Patent GmbH, priority 2018, dated 2026).
